Laboratory results from publication PMC11554760.
Construct, isoform or probe ends are uncertain for at least one entry. At least one verdict was read from the data and is not stated in words by the source.

System: His-CsPHL7 (Camellia sinensis)
Assay: EMSA
Settings: LightShift chemiluminescent EMSA kit (Thermo), pH and temperature not stated, recombinant protein, protein details: His (N-terminal)

| Sequence | binding result (label: biotin) | binding result (label: 5' biotin on both strands) |
| --- | --- | --- |
| AATCATGACATTGATATTCCCAAAAAATG (double strand) [TS1-Probe-2] | binds | – |
| AATTAACCTTATCATATTCATAACCTAAG (double strand) [TS1-Probe-1] | binds | – |
| CTACCAAAAAAAGTTAGATTCCCCAAAAG (double strand) [TS1-Probe-3] | binds | – |
| TAACTCTAACTCATTATTCTTGAAACCTC (double strand) [TS1-Probe-4] | binds | – |
| TATGAAAGAATATATCATCCATACT (double strand) [GS1-Probe] | – | binds |
